In the supplement of paper PMC10626197:
Several reference drugs read as weak here; read low effects with care.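 Drug pairs were tested on MCF7 breast cancer cells in a dose grid. On every plate, solvent-only DMSO wells served as the untreated reference, and a doxorubicin series served as the total-kill control. No hit threshold applies to the viability readings.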

System: MCF7
Assay: cell viability relative to DMSO control (raw); higher = more viable cells
Details: exposure time 72 h
Procedure: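 MCF7 cells, 1000 cells/well in 384-well plates, treated with 6x6 dose matrices of drug pairs (1:3 serial dilutions, DMSO as lowest dose) for 72 h at 37 °C. Viability read by CellTiter-Glo luminescence, 3 biological replicates. Normalised viability sets 0% at the highest doxorubicin dose and 100% at the 0,0 µM control per combination.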

CC[C@]1(O)C[C@H]2CN(CCc3c([nH]c4ccccc34)[C@@](C(=O)OC)(c3cc4c(cc3OC)N(C=O)[C@H]3[C@@](O)(C(=O)OC)[C@H](OC(C)=O)[C@]5(CC)C=CCN6CC[C@]43[C@@H]65)C2)C1 [Vincristine] + COc1cc(Nc2ncc3c(n2)-c2ccc(Cl)cc2C(c2c(F)cccc2OC)=NC3)ccc1C(=O)O [Alisertib]
cell viability [%]
Details	drug 2 concentration 0 µM	drug 2 concentration 0.0617284 µM	drug 2 concentration 0.185185 µM	drug 2 concentration 0.555556 µM	drug 2 concentration 1.66667 µM	drug 2 concentration 5 µM
drug 1 concentration 0.0037037 µM	79.6	72.7	74.7	83.4	93.4	86.3
drug 1 concentration 0.0111111 µM	66.9	67.3	74.2	76	78.1	86.5
drug 1 concentration 0.0333333 µM	83.6	79.4	72.2	75.6	80.3	80.4
drug 1 concentration 0.1 µM	63.9	65	72.1	72.1	59.7	70.33
drug 1 concentration 0.3 µM	71.8	75.8	71.5	70.7	67.9	69.1

CC[C@]1(O)C[C@H]2CN(CCc3c([nH]c4ccccc34)[C@@](C(=O)OC)(c3cc4c(cc3OC)N(C=O)[C@H]3[C@@](O)(C(=O)OC)[C@H](OC(C)=O)[C@]5(CC)C=CCN6CC[C@]43[C@@H]65)C2)C1 [Vincristine] + Cc1c(-c2ccc(O)cc2)n(Cc2ccc(OCCN3CCCCCC3)cc2)c2ccc(O)cc12 [Bazedoxifene (acetate)]
cell viability [%]
Details	drug 2 concentration 0 µM	drug 2 concentration 0.123457 µM	drug 2 concentration 0.37037 µM	drug 2 concentration 1.11111 µM	drug 2 concentration 3.33333 µM	drug 2 concentration 10 µM
drug 1 concentration 0.0037037 µM	91.5	82.8	82.8	86.3	71.2	5.53
drug 1 concentration 0.0111111 µM	100	92.6	91.3	90.5	76.7	6.53
drug 1 concentration 0.0333333 µM	82.9	82.5	82.9	78.33	59.4	8.24
drug 1 concentration 0.1 µM	96	82.9	83	74.4	62	8.13
drug 1 concentration 0.3 µM	84.6	82.6	79	69.6	56.7	6.75

CC[C@]1(O)C[C@H]2CN(CCc3c([nH]c4ccccc34)[C@@](C(=O)OC)(c3cc4c(cc3OC)N(C=O)[C@H]3[C@@](O)(C(=O)OC)[C@H](OC(C)=O)[C@]5(CC)C=CCN6CC[C@]43[C@@H]65)C2)C1 [Vincristine] + Cc1ncc(NC(=O)c2ccc(CN3CCN(C)CC3)c(C(F)(F)F)c2)cc1Nc1nccc(-c2cccnc2)n1 [Flumatinib (mesylate)]
cell viability [%]
Details	drug 2 concentration 0 µM	drug 2 concentration 0.617284 µM	drug 2 concentration 1.85185 µM	drug 2 concentration 5.55556 µM	drug 2 concentration 16.6667 µM	drug 2 concentration 50 µM
drug 1 concentration 0.0037037 µM	98.6	98.7	102	102	2.02	1.37
drug 1 concentration 0.0111111 µM	108	107	110	107	3.2	0.296
drug 1 concentration 0.0333333 µM	98.6	100	95.3	89.6	2.35	0.309
drug 1 concentration 0.1 µM	95.7	95.8	84.3	67.7	1.93	0.693
drug 1 concentration 0.3 µM	92	91.9	82.2	70.6	2.01	0.556

CC[C@]1(O)C[C@H]2CN(CCc3c([nH]c4ccccc34)[C@@](C(=O)OC)(c3cc4c(cc3OC)N(C=O)[C@H]3[C@@](O)(C(=O)OC)[C@H](OC(C)=O)[C@]5(CC)C=CCN6CC[C@]43[C@@H]65)C2)C1 [Vincristine] + Cn1cc(-c2ccc3nnc(C(F)(F)c4ccc5ncccc5c4)n3n2)cn1 [JNJ-38877605]
cell viability [%]
Details	drug 2 concentration 0 µM	drug 2 concentration 0.0617284 µM	drug 2 concentration 0.185185 µM	drug 2 concentration 0.555556 µM	drug 2 concentration 1.66667 µM	drug 2 concentration 5 µM
drug 1 concentration 0.0037037 µM	72.2	70	68.6	74.5	71.9	74.7
drug 1 concentration 0.0111111 µM	77	74.1	79	75.2	76.6	84.3
drug 1 concentration 0.0333333 µM	77.8	81.7	78.6	85.5	85.2	76.2
drug 1 concentration 0.1 µM	75	76.8	69.43	75.9	78.5	73.6
drug 1 concentration 0.3 µM	68.4	72.5	71.9	75.3	77.7	72.9

CS(=O)(=O)c1ccc(C(=O)Nc2ccc(Cl)c(-c3ccccn3)c2)c(Cl)c1 [Vismodegib] + O=C(NOC[C@H](O)CO)c1ccc(F)c(F)c1Nc1ccc(I)cc1F [PD0325901]
cell viability [%]
Details	drug 2 concentration 0 µM	drug 2 concentration 0.0246914 µM	drug 2 concentration 0.0740741 µM	drug 2 concentration 0.222222 µM	drug 2 concentration 0.666667 µM	drug 2 concentration 2 µM
drug 1 concentration 0.617284 µM	100	96.1	95.2	91.5	92.3	95.7
drug 1 concentration 1.85185 µM	106	93.1	100	108	102	93.7
drug 1 concentration 5.55556 µM	99.5	107	97.4	99.8	97	100
drug 1 concentration 16.6667 µM	92.4	85.6	85.7	89.6	91.5	83.4
drug 1 concentration 50 µM	74.6	77.6	77.2	68.2	72.3	67.2
